Paper doi:10.1101/2024.06.15.599175
No constants are given. Whether binding was seen depends on the method and setting. In cells and extracts the contact can be indirect. A yes stands for co-enrichment or nearness to the bait. Other partners may have been found.

B1: 30S ribosomal protein S9 (protein, UniProt Q9HVY3 1-130)
chain: MSATQNYGTGRRKTATARVFLRPGTGKISINNRGLDQFFGRETARMVVRQPLELTETVEKFDIFVTVVGGGVSGQAGAIRHGITRALIEYDETLRSSLRKAGYVTRDAREVERKKVGLRKARKRPQYSKR
B2: 50S ribosomal protein L22 (protein, UniProt Q9HWE0 1-110)
chain: MEVAAKLSGARISAQKARLVADQIRGKKVGEALNLLAFSSKKAAEIMKKVLESAVANAEHNEGADVDDLKVSTVFVNEGRSLKRIMPRAKGRADRIVKRSCHITVKVADK
B3: 50S ribosomal protein L4 (protein, UniProt Q9HWD6 1-200)
chain: MQLNVNGAQAIEVSERTFGGEFNETLVHQAVVAYMAGGRQGSKAQKTRSEVSGGGKKPWRQKGTGRARAGTIRSPIWRGGGTTFAAKPRSHEQKLNKKMYRAALRSILAELVRLDRLVVVADFAVDAPKTKGLVAKLDTLGLKDVLIVTDGVDENLYLAARNLAHVDVRDVQGSDPVSLIAYDKVLVTVSAVKKFEELLG

Biological target: gp335-sfGFP (gp335 of Pseudomonas phage Churi with C-terminal sfGFP) (Pseudomonas phage Churi)
Experiment: affinity purification with mass spectrometry

Binder	binding
B1	binds
B2	binds
B3	binds
